No constants are given. Whether binding was seen depends on the method and setting. A result given as binding can be weak or reduced; the word gives no strength. Tags and fused reporters may be left off the sequences shown.
Molecular target: GAL4 DBD-ALP-1b (C. elegans)
Experiment: two-hybrid; GAL4 DBD and GAL4 AD fusions co-transformed into S. cerevisiae PJ69-4A; growth on SC-Ura-Leu-His plates with 5 mM 5-aminotriazole, 30°C, 4 days

B1: GAL4 AD-MLC-4 (protein, UniProt Q09510 1-172)
chain: MASRKTVNRRQRPQRATSNVFAMFDQAQIQEFKEAFNMIDQNRDGFIDQEDLKDMFASLGKEVTEQFIDSMINEAPGAQPINFTMFLTLFGEKLTGTDPEEVIRNAFQCFDEDNSGKLNEEHLRELLTTMGERYSEEQVDELFRDAPIKGGQFDYVEFTRMLKHGTKDKDEA
binding: binds

From article PMC10752531
